No constants are given. Whether binding was seen depends on the method and setting. In cells and extracts the contact can be indirect. Some binding calls cover weakened binding; strength is not graded here.
Target: ZDHHC5 (transfected into HEK293T cells) (UniProt Q9C0B5)
Experiment: co-IP; HEK293T cells transfected with SSTR5 and ZDHHC5 plasmids; IP-lysis buffer (50 mM Tris HCl pH 7.4, 150 mM NaCl, 1 mM EDTA, 1% Triton X-100), magnetic beads, 4 ug antibody or IgG; also with lomitapide treatment (inhibits their combination)

Chains of the proteins cited; added tags and fusions are not shown.
UniProt Q9C0B5: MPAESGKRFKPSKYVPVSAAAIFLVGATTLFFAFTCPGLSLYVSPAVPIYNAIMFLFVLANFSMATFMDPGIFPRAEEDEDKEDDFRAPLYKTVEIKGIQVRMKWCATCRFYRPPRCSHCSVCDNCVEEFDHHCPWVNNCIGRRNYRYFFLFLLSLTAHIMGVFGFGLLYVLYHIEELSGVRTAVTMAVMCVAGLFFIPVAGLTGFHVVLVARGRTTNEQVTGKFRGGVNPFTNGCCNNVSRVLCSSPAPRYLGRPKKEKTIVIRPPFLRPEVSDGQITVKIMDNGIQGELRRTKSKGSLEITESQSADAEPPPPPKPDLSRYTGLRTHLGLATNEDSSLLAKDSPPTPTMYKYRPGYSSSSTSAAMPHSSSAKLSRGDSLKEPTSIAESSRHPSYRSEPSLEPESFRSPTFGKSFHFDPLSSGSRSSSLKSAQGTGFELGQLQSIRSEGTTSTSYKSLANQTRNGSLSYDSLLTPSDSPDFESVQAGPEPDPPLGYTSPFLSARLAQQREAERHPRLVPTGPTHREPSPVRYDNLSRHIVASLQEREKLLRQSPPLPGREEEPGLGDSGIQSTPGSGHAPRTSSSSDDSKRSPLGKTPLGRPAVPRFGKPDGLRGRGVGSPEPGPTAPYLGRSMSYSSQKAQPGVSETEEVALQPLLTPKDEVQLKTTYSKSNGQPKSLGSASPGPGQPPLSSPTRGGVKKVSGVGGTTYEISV
UniProt P35346: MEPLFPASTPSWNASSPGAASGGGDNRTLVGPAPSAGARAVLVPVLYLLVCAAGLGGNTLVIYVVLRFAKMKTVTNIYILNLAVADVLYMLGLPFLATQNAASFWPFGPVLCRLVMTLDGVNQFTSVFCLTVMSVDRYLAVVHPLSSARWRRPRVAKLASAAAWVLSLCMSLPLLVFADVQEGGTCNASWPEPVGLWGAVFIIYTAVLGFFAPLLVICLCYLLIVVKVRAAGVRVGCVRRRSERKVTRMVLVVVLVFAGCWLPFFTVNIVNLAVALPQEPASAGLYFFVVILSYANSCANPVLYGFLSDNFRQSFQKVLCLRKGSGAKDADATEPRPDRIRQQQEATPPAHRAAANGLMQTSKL

- binding: binds
Substance: SSTR5 (transfected into HEK293T cells) (from UniProt P35346 1-364) (receptor)
